Results reported in publication PMC7956269.

biological target: Biotin-FOXC1 (mouse) (UniProt Q61572); experiment: affinity purification with mass spectrometry; streptavidin-agarose precipitation of biotinylated FOXC1 from nuclear extract of stable HEK293T cells (293T-Biotin-FOXC1); IP350 buffer (350 mM NaCl, 20 mM Tris-HCl pH 7.5, 0.5% NP40, 1 mM EDTA, 10% glycerin); SDS-PAGE, LC-ESI-MS/MS; proteins of the 293T-Biotin control deducted

| Binder | binding |
| --- | --- |
| Ctcf (protein, UniProt P49711 1-727) MEGDAVEAIVEESETFIKGKERKTYQRRREGGQEEDACHLPQNQTDGGEVVQDVNSSVQMVMMEQLDPTLLQMKTEVMEGTVAPEAEAAVDDTQIITLQVVNMEEQPINIGELQLVQVPVPVTVPVATTSVEELQGAYENEVSKEGLAESEPMICHTLPLPEGFQVVKVGANGEVETLEQGELPPQEDPSWQKDPDYQPPAKKTKKTKKSKLRYTEEGKDVDVSVYDFEEEQQEGLLSEVNAEKVVGNMKPPKPTKIKKKGVKKTFQCELCSYTCPRRSNLDRHMKSHTDERPHKCHLCGRAFRTVTLLRNHLNTHTGTRPHKCPDCDMAFVTSGELVRHRRYKHTHEKPFKCSMCDYASVEVSKLKRHIRSHTGERPFQCSLCSYASRDTYKLKRHMRTHSGEKPYECYICHARFTQSGTMKMHILQKHTENVAKFHCPHCDTVIARKSDLGVHLRKQHSYIEQGKKCRYCDAVFHERYALIQHQKSHKNEKRFKCDQCDYACRQERHMIMHKRTHTGEKPYACSHCDKTFRQKQLLDMHFKRYHDPNFVPAAFVCSKCGKTFTRRNTMARHADNCAGPDGVEGENGGETKKSKRGRKRKMRSKKEDSSDSENAEPDLDDNEDEEEPAVEIEPEPEPQPVTPAPPPAKKRRGRPPGRTNQPKQNQPTAIIQVEDQNTGAIENIIVEVKKEPDAEPAEGEEEEAQPAATDAPNGDLTPEMILSMMDR | binds |
| Las1l (protein, UniProt Q9Y4W2 1-734) MSWESGAGPGLGSQGMDLVWSAWYGKCVKGKGSLPLSAHGIVVAWLSRAEWDQVTVYLFCDDHKLQRYALNRITVWRSRSGNELPLAVASTADLIRCKLLDVTGGLGTDELRLLYGMALVRFVNLISERKTKFAKVPLKCLAQEVNIPDWIVDLRHELTHKKMPHINDCRRGCYFVLDWLQKTYWCRQLENSLRETWELEEFREGIEEEDQEEDKNIVVDDITEQKPEPQDDGKSTESDVKADGDSKGSEEVDSHCKKALSHKELYERARELLVSYEEEQFTVLEKFRYLPKAIKAWNNPSPRVECVLAELKGVTCENREAVLDAFLDDGFLVPTFEQLAALQIEYEDGQTEVQRGEGTDPKSHKNVDLNDVLVPKPFSQFWQPLLRGLHSQNFTQALLERMLSELPALGISGIRPTYILRWTVELIVANTKTGRNARRFSAGQWEARRGWRLFNCSASLDWPRMVESCLGSPCWASPQLLRIIFKAMGQGLPDEEQEKLLRICSIYTQSGENSLVQEGSEASPIGKSPYTLDSLYWSVKPASSSFGSEAKAQQQEEQGSVNDVKEEEKEEKEVLPDQVEEEEENDDQEEEEEDEDDEDDEEEDRMEVGPFSTGQESPTAENARLLAQKRGALQGSAWQVSSEDVRWDTFPLGRMPGQTEDPAELMLENYDTMYLLDQPVLEQRLEPSTCKTDTLGLSCGVGSGNCSNSSSSNFEGLLWSQGQLHGLKTGLQLF | binds |
| Cdkl5 (protein, UniProt O76039 1-960) MKIPNIGNVMNKFEILGVVGEGAYGVVLKCRHKETHEIVAIKKFKDSEENEEVKETTLRELKMLRTLKQENIVELKEAFRRRGKLYLVFEYVEKNMLELLEEMPNGVPPEKVKSYIYQLIKAIHWCHKNDIVHRDIKPENLLISHNDVLKLCDFGFARNLSEGNNANYTEYVATRWYRSPELLLGAPYGKSVDMWSVGCILGELSDGQPLFPGESEIDQLFTIQKVLGPLPSEQMKLFYSNPRFHGLRFPAVNHPQSLERRYLGILNSVLLDLMKNLLKLDPADRYLTEQCLNHPTFQTQRLLDRSPSRSAKRKPYHVESSTLSNRNQAGKSTALQSHHRSNSKDIQNLSVGLPRADEGLPANESFLNGNLAGASLSPLHTKTYQASSQPGSTSKDLTNNNIPHLLSPKEAKSKTEFDFNIDPKPSEGPGTKYLKSNSRSQQNRHSFMESSQSKAGTLQPNEKQSRHSYIDTIPQSSRSPSYRTKAKSHGALSDSKSVSNLSEARAQIAEPSTSRYFPSSCLDLNSPTSPTPTRHSDTRTLLSPSGRNNRNEGTLDSRRTTTRHSKTMEELKLPEHMDSSHSHSLSAPHESFSYGLGYTSPFSSQQRPHRHSMYVTRDKVRAKGLDGSLSIGQGMAARANSLQLLSPQPGEQLPPEMTVARSSVKETSREGTSSFHTRQKSEGGVYHDPHSDDGTAPKENRHLYNDPVPRRVGSFYRVPSPRPDNSFHENNVSTRVSSLPSESSSGTNHSKRQPAFDPWKSPENISHSEQLKEKEKQGFFRSMKKKKKKSQTVPNSDSPDLLTLQKSIHSASTPSSRPKEWRPEKISDLQTQSQPLKSLRKLLHLSSASNHPASSDPRFQPLTAQQTKNSFSEIRIHPLSQASGGSSNIRQEPAPKGRPALQLPGQMDPGWHVSSVTRSATEGPSYSEQLGAKSGPNGHPYNRTNRSRMPNLNDLKETAL | binds |

Continued, values first:

| binding | Binder |
| --- | --- |
| binds | Ppp1r10 (protein, UniProt Q96QC0 1-940) MGSGPIDPKELLKGLDSFLNRDGEVKSVDGISKIFSLMKEARKMVSRCTYLNILLQTRSPEILVKFIDVGGYKLLNNWLTYSKTTNNIPLLQQILLTLQHLPLTVDHLKQNNTAKLVKQLSKSSEDEELRKLASVLVSDWMAVIRSQSSTQPAEKDKKKRKDEGKSRTTLPERPLTEVKAETRAEEAPEKKREKPKSLRTTAPSHAKFRSTGLELETPSLVPVKKNASTVVVSDKYNLKPIPLKRQSNVAAPGDATPPAEKKYKPLNTTPNATKEIKVKIIPPQPMEGLGFLDALNSAPVPGIKIKKKKKVLSPTAAKPSPFEGKTSTEPSTAKPSSPEPAPPSEAMDADRPGTPVPPVEVPELMDTASLEPGALDAKPVESPGDPNQLTRKGRKRKSVTWPEEGKLREYFYFELDETERVNVNKIKDFGEAAKREILSDRHAFETARRLSHDNMEEKVPWVCPRPLVLPSPLVTPGSNSQERYIQAEREKGILQELFLNKESPHEPDPEPYEPIPPKLIPLDEECSMDETPYVETLEPGGSGGSPDGAGGSKLPPVLANLMGSMGAGKGPQGPGGGGINVQEILTSIMGSPNSHPSEELLKQPDYSDKIKQMLVPHGLLGPGPIANGFPPGGPGGPKGMQHFPPGPGGPMPGPHGGPGGPVGPRLLGPPPPPRGGDPFWDGPGDPMRGGPMRGGPGPGPGPYHRGRGGRGGNEPPPPPPPFRGARGGRSGGGPPNGRGGPGGGMVGGGGHRPHEGPGGGMGNSSGHRPHEGPGGGMGSGHRPHEGPGGSMGGGGGHRPHEGPGGGISGGSGHRPHEGPGGGMGAGGGHRPHEGPGGSMGGSGGHRPHEGPGHGGPHGHRPHDVPGHRGHDHRGPPPHEHRGHDGPGHGGGGHRGHDGGHSHGGDMSNRPVCRHFMMKGNCRYENNCAFYHPGVNGPPLP |
| binds | Utp14a (protein, UniProt Q9BVJ6 1-771) MTANRLAESLLALSQQEELADLPKDYLLSESEDEGDNDGERKHQKLLEAISSLDGKNRRKLAERSEASLKVSEFNVSSEGSGEKLVLADLLEPVKTSSSLATVKKQLSRVKSKKTVELPLNKEEIERIHREVAFNKTAQVLSKWDPVVLKNRQAEQLVFPLEKEEPAIAPIEHVLSGWKARTPLEQEIFNLLHKNKQPVTDPLLTPVEKASLRAMSLEEAKMRRAELQRARALQSYYEAKARREKKIKSKKYHKVVKKGKAKKALKEFEQLRKVNPAAALEELEKIEKARMMERMSLKHQNSGKWAKSKAIMAKYDLEARQAMQEQLSKNKELTQKLQVASESEEEEGGTEDVEELLVPDVVNEVQMNADGPNPWMLRSCTSDTKEAATQEDPEQLPELEAHGVSESEGEERPVAEEEILLREFEERRSLRKRSELSQDAEPAGSQETKDSGSQEVLSELRVLSQKLKENHQSRKQKASSEGTIPQVQREEPAPEEEEPLLLQRPERVQTLEELEELGKEECFQNKELPRPVLEGQQSERTPNNRPDAPKEKKKKEQMIDLQNLLTTQSPSVKSLAVPTIEELEDEEERNHRQMIKEAFAGDDVIRDFLKEKREAVEASKPKDVDLTLPGWGEWGGVGLKPSAKKRRRFLIKAPEGPPRKDKNLPNVIINEKRNIHAAAHQVRVLPYPFTHHWQFERTIQTPIGSTWNTQRAFQKLTTPKVVTKPGHIINPIKAEDVGYRSSSRSDLSVIQRNPKRITTRHKKQLKKCSVD |
| binds | Rrp1b (protein, UniProt Q14684 1-758) MAPAMQPAEIQFAQRLASSEKGIRDRAVKKLRQYISVKTQRETGGFSQEELLKIWKGLFYCMWVQDEPLLQEELANTIAQLVHAVNNSAAQHLFIQTFWQTMNREWKGIDRLRLDKYYMLIRLVLRQSFEVLKRNGWEESRIKVFLDVLMKEVLCPESQSPNGVRFHFIDIYLDELSKVGGKELLADQNLKFIDPFCKIAAKTKDHTLVQTIARGVFEAIVDQSPFVPEETMEEQKTKVGDGDLSAEEIPENEVSLRRAVSKKKTALGKNHSRKDGLSDERGRDDCGTFEDTGPLLQFDYKAVADRLLEMTSRKNTPHFNRKRLSKLIKKFQDLSEGSSISQLSFAEDISADEDDQILSQGKHKKKGNKLLEKTNLEKEKGSRVFCVEEEDSESSLQKRRRKKKKKHHLQPENPGPGGAAPSLEQNRGREPEASGLKALKARVAEPGAEATSSTGEESGSEHPPAVPMHNKRKRPRKKSPRAHREMLESAVLPPEDMSQSGPSGSHPQGPRGSPTGGAQLLKRKRKLGVVPVNGSGLSTPAWPPLQQEGPPTGPAEGANSHTTLPQRRRLQKKKAGPGSLELCGLPSQKTASLKKRKKMRVMSNLVEHNGVLESEAGQPQALGSSGTCSSLKKQKLRAESDFVKFDTPFLPKPLFFRRAKSSTATHPPGPAVQLNKTPSSSKKVTFGLNRNMTAEFKKTDKSILVSPTGPSRVAFDPEQKPLHGVLKTPTSSPASSPLVAKKPLTTTPRRRPRAMDFF |
| binds | Thrap3 (protein, UniProt Q9Y2W1 1-955) MSKTNKSKSGSRSSRSRSASRSRSRSFSKSRSRSRSLSRSRKRRLSSRSRSRSYSPAHNRERNHPRVYQNRDFRGHNRGYRRPYYFRGRNRGFYPWGQYNRGGYGNYRSNWQNYRQAYSPRRGRSRSRSPKRRSPSPRSRSHSRNSDKSSSDRSRRSSSSRSSSNHSRVESSKRKSAKEKKSSSKDSRPSQAAGDNQGDEAKEQTFSGGTSQDTKASESSKPWPDATYGTGSASRASAVSELSPRERSPALKSPLQSVVVRRRSPRPSPVPKPSPPLSSTSQMGSTLPSGAGYQSGTHQGQFDHGSGSLSPSKKSPVGKSPPSTGSTYGSSQKEESAASGGAAYTKRYLEEQKTENGKDKEQKQTNTDKEKIKEKGSFSDTGLGDGKMKSDSFAPKTDSEKPFRGSQSPKRYKLRDDFEKKMADFHKEEMDDQDKDKAKGRKESEFDDEPKFMSKVIGANKNQEEEKSGKWEGLVYAPPGKEKQRKTEELEEESFPERSKKEDRGKRSEGGHRGFVPEKNFRVTAYKAVQEKSSSPPPRKTSESRDKLGAKGDFPTGKSSFSITREAQVNVRMDSFDEDLARPSGLLAQERKLCRDLVHSNKKEQEFRSIFQHIQSAQSQRSPSELFAQHIVTIVHHVKEHHFGSSGMTLHERFTKYLKRGTEQEAAKNKKSPEIHRRIDISPSTFRKHGLAHDEMKSPREPGYKAEGKYKDDPVDLRLDIERRKKHKERDLKRGKSRESVDSRDSSHSRERSAEKTEKTHKGSKKQKKHRRARDRSRSSSSSSQSSHSYKAEEYTEETEEREESTTGFDKSRLGTKDFVGPSERGGGRARGTFQFRARGRGWGRGNYSGNNNNNSNNDFQKRNREEEWDPEYTPKSKKYYLHDDREGEGSDKWVSRGRGRGAFPRGRGRFMFRKSSTSPKWAHDKFSGEEGEIEDDESGTENREEKDNIQPTTE |

No constants are given. Whether binding was seen depends on the method and setting. Binding seen in cells or lysates may run through a third protein. Here binding means that the protein was enriched with, or labelled near, the bait; the list need not be complete.
